{
  "source": "paper PMC10880924",
  "about": "“Small molecule WDR5 inhibitors down-regulate lncRNA expression” (RSC Medicinal Chemistry, 2024)",
  "key": {"[1]": {"tested_on": "HOTTIP–WDR5^WT complex", "details": "iv-RIP, U-2 OS RNA, 10 μM"}, "[2]": {"tested_on": "HOXC13-AS–WDR5^WT complex", "details": "iv-RIP, U-2 OS RNA, 10 μM"}},
  "note": "Entries after “also recorded” stand apart in the source; their conditions may differ.",
  "data": [
    {"smiles": "CNC(=O)c1cc(C2(C#N)CCC2)cc(NS(=O)(=O)c2cc(Br)cc(Cl)c2O)c1O", "note": "[7k, 3-((5-Bromo-3-chloro-2-hydroxyphenyl)sulfonamido)-5-(1cyanocyclobutyl)-2-hydroxy-N-methylbenzamide]", "values": [
      {"measurement": "inhibition of HOTTIP–WDR5^WT complex formation", "setting": "[1]", "result": "could inhibit lncRNA–WDR5 formation to a level almost similar to the WDR5^F266A mutant; also recorded: could inhibit HOTTIP–WDR5^WT and HOXC13-AS–WDR5^WT complex formation (Fig. 3) but the effect was moderate"},
      {"measurement": "inhibition of HOXC13-AS–WDR5^WT complex formation", "setting": "[2]", "result": "could inhibit lncRNA–WDR5 formation to a level almost similar to the WDR5^F266A mutant; also recorded: could inhibit HOTTIP–WDR5^WT and HOXC13-AS–WDR5^WT complex formation (Fig. 3) but the effect was moderate"}
    ]}
  ]
}
